The text below walks through data of doi:10.1101/2024.10.10.617692.

By UniProt entry, the sequences of proteins in these tests, tags left out.
UniProt P11940: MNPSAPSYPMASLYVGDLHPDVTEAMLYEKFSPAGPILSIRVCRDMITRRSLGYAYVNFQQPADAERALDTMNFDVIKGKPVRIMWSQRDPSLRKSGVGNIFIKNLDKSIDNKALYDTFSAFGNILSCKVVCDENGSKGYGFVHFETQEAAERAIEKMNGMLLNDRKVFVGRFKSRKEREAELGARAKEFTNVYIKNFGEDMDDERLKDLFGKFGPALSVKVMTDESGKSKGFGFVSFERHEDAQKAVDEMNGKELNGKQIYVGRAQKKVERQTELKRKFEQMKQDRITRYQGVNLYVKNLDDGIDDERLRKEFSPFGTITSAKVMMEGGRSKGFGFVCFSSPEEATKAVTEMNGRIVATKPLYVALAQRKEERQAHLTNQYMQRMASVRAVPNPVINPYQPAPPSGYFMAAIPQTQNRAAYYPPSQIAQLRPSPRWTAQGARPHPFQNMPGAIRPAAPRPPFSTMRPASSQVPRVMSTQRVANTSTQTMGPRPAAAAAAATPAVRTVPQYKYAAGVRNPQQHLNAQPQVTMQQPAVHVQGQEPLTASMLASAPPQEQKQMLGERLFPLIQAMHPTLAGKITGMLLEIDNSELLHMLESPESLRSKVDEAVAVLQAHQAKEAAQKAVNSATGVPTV
UniProt Q9BYM8: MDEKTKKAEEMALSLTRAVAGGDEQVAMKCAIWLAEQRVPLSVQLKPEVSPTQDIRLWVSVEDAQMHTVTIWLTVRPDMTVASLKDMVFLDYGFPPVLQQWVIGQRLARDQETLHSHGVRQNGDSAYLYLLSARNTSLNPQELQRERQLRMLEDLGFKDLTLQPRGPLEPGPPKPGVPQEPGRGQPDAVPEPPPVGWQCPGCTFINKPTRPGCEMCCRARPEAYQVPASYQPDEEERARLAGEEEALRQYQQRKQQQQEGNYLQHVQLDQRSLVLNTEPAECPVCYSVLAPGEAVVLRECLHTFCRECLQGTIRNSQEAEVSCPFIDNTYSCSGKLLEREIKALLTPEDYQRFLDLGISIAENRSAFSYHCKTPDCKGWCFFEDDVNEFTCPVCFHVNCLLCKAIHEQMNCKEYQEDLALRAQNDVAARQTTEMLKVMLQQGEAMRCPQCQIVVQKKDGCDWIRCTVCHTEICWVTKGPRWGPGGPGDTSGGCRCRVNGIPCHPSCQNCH
UniProt P06730: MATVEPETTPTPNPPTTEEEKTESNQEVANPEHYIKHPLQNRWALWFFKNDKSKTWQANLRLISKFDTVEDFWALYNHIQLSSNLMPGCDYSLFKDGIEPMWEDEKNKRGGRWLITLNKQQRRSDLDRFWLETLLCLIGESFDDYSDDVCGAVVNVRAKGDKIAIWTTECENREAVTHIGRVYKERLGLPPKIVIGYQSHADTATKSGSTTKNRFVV

Test in all cases: co-IP
One experiment has as its target PABPC1-GFP (UniProt P11940).
Experiment [1] addresses endogenous PABPC1 (human (endogenous in AC16)) (UniProt P11940).
Experiment [2] shares this target. The source holds these as a separate data set.

Like-named read-outs stand apart in the source and are kept apart here. These are yes or no findings as the source states them, for the method shown. Binding seen in cells or lysates may run through a third protein. Some results given as binding are weak or reduced against the parent protein; the word gives no strength.

Turning to “Full-length HOIL-1 (from UniProt Q9BYM8 1-510) (enzyme)”, the binding entry with PABPC1-GFP is on record as “binds”.

Turning to eIF4E (from UniProt P06730 1-217), the binding entry in experiment [1] is “binds”.

Take “full-length HOIL-1 (endogenous) (from UniProt Q9BYM8 1-510) (enzyme)”: the binding result in experiment [1] was “binds”.

B1: MKRN1 (enzyme, UniProt Q9UHC7 1-482)
chain: MAEAATPGTTATTSGAGAAAATAAAASPTPIPTVTAPSLGAGGGGGGSDGSGGGWTKQVTCRYFMHGVCKEGDNCRYSHDLSDSPYSVVCKYFQRGYCIYGDRCRYEHSKPLKQEEATATELTTKSSLAASSSLSSIVGPLVEMNTGEAESRNSNFATVGAGSEDWVNAIEFVPGQPYCGRTAPSCTEAPLQGSVTKEESEKEQTAVETKKQLCPYAAVGECRYGENCVYLHGDSCDMCGLQVLHPMDAAQRSQHIKSCIEAHEKDMELSFAVQRSKDMVCGICMEVVYEKANPSERRFGILSNCNHTYCLKCIRKWRSAKQFESKIIKSCPECRITSNFVIPSEYWVEEKEEKQKLILKYKEAMSNKACRYFDEGRGSCPFGGNCFYKHAYPDGRREEPQRQKVGTSSRYRAQRRNHFWELIEERENSNPFDNDEEEVVTFELGEMLLMLLAAGGDDELTDSEDEWDLFHDELEDFYDLDL
Consider B1, for which the binding result in experiment [2] was “binds”.
